We go through 2 substances from paper PMC6219760.

These are yes or no findings as the source states them, for the method shown. In cells and extracts the contact can be indirect. Where a sequence is shown, tags or fusion partners need not be part of it.

Test [1] deals with T1, Buc-GFP, in vitro translated (wt Buc) (zebrafish) (UniProt H0WFA5).
T1 sequence: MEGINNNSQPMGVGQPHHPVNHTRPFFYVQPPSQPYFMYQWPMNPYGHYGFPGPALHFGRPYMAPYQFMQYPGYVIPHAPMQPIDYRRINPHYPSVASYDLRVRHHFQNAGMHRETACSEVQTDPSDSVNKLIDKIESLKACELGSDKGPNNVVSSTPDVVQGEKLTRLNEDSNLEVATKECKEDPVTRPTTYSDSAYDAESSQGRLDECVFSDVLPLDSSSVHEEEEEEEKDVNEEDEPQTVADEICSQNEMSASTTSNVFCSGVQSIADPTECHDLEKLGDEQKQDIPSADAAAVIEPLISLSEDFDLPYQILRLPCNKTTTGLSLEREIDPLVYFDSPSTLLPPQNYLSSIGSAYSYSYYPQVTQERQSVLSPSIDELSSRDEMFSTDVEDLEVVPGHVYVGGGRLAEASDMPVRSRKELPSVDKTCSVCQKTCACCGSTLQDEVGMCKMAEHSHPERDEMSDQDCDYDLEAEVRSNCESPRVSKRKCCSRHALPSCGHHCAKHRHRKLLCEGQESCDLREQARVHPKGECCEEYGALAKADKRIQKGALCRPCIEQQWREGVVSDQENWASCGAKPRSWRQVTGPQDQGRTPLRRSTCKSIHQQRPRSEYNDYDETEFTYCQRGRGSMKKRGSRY
Put plainly: pull-down; in vitro translated proteins diluted in YSS buffer, GFP fusions held on GFP Trap beads, Western blot. For orientation: In western blotting, separated proteins are transferred to a membrane and probed.

For test [2], the target named is T2, Buc-VC (Buc fused to the C-terminal fragment of split Venus) (zebrafish) (UniProt H0WFA5).
T2 sequence: T1 sequence
Nature of the test: split reporter; BiFC with split Venus (VN, VC); mRNAs (200 pg each) injected into one-cell zebrafish embryos, fluorescence imaged at 3 hpf.

In the case of “Myc-Non-muscle Myosin II (NMII; 20 kD), in vitro translated”, in test [1], the binding entry was “no binding”.
On to “VN-Venus fragment alone (N-terminal fragment of split Venus) (domain or fragment)”, for which the binding entry in test [2] was “no binding”.
